Values quoted from earlier work in patent US20150098993A1, “COMPOSITIONS, PROCESS OF PREPARATION OF SAID COMPOSITIONS AND METHOD OF TREATING INFLAMMATORY DISEASES” (priority 2011, published 2015).
For some assays here: At least one compound was matched to its structure with a doubt left. Some results were stated once for a whole list of compounds, not compound by compound.

Experiments:
[1] = in vivo
male BALB/c mice = details: apremilast 5 and 25 mg/kg, dexamethasone 1 mg/kg; daily, oral; McCann

## CCCc1nc(C(C)(C)O)c(C(=O)OCc2oc(=O)oc2C)n1Cc1ccc(-c2ccccc2-c2nnn[nH]2)cc1 [(5-methyl-2-oxo-2H-1,3-dioxol-4-yl)methyl 4-(2-hydroxypropan-2-yl)-2-propyl-1-({4-[2-(2H-1,2,3,4-tetrazol-5-yl)phenyl]phenyl}methyl)-1H-imidazole-5-carboxylate]
[1]
  Cmax: 220 to 2100 ng/mL
  Tmax: 1 to 2 h

## CCOC(=O)[C@H](CCc1ccccc1)N[C@@H](C)C(=O)N1Cc2ccccc2C[C@H]1C(=O)O [Quinapril, (3S)-2-[(2S)-2-{[(2S)-1-ethoxy-1-oxo-4-phenylbutan-2-yl]amino}propanoyl]-1,2,3,4-tetrahydroisoquinoline-3-carboxylic acid]
[1]
  Cmax: 220 to 2100 ng/mL
  Tmax: 1 to 2 h

## C[C@@H]1C[C@H]2[C@@H]3CCC4=CC(=O)C=C[C@]4(C)[C@@]3(F)[C@@H](O)C[C@]2(C)[C@@]1(O)C(=O)CO [dexamethasone]
Male BALB/c mice
  arthritis severity, as measured by clinical score: significantly suppressed arthritis severity
